Test results published in PubChem BioAssay (Tox21).
The source calls these results inconclusive, neither active nor inactive. Unless noted, calls follow the shape of the dose curve; as a rule, active = well fitted curve in the direction sought with a large enough effect in the repeat runs; inconclusive = weak or mixed curves; inactive = no such curve, though single readings can be large; an effect the other way counts as inactive or inconclusive.

Chains of the proteins cited; added tags and fusions are not shown.
UniProt P04150, whole entry: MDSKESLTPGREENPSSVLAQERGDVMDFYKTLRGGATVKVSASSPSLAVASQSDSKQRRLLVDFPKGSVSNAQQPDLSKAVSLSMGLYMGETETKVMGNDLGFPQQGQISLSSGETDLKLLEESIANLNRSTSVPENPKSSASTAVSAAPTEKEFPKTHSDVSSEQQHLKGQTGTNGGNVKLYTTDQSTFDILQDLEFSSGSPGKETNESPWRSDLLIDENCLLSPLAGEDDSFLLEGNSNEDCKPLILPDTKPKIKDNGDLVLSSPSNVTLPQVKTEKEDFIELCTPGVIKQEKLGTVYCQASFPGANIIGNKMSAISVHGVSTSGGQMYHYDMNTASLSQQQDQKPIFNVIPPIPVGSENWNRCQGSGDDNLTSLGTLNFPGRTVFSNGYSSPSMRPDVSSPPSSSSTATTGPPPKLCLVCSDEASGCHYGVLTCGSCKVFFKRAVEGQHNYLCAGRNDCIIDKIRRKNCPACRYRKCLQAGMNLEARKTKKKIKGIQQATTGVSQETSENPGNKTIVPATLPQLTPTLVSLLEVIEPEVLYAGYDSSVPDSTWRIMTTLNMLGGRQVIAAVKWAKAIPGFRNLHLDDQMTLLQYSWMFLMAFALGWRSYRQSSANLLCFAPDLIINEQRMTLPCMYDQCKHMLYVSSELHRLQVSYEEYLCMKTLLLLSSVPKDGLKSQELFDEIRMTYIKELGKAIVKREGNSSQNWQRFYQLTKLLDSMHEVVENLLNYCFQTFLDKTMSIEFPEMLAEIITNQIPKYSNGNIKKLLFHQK

Experiments:
[1] = molecular target: Glucocorticoid receptor (Homo sapiens) (UniProt P04150); assay: qHTS assay to identify small molecule antagonists of the glucocorticoid receptor (GR) signaling pathway (AID 720692; active = well fitted inhibition curve with a large enough effect in the signal ratio in the repeat runs, not every such curve was filed as active; inconclusive = weak or mixed curves, or effect the other way; inactive = no such curve, though single readings can be large or run the other way; the % refers to the signal ratio; also: % is scaled to controls: 0 for no effect and ±100 for the full control effect); details: GR-bla HeLa, beta-lactamase FRET ratio, dexamethasone-stimulated, 18 h; activity change, negative = inhibition: at 58.5 µM (top of the series)
[2] = qHTS assay for identifying genotoxic compounds that show differential cytotoxicity against isogenic chicken DT40 cell lines with known DNA damage response pathways - Rev3 mutant cell line (AID 743014); details: chicken DT40 Rev3-/- viability, CellTiter-Glo, 40 h; also: potency is read from the fitted curve at half-maximal effect; nearly all actives have a fitted effect of over 55% in size
Text: National Center for Advancing Translational Sciences [NCATS]
NIH Chemical Genomics Center [NCGC]
U.S. Environmental Protection Agency [EPA]
National Institutes of Environmental Health Sciences [NIEHS]
National Toxicology Program [NTP]
U.S. Food and Drug Administration [FDA]
DNA repair pathways play a critical role in cellular homeostasis by repairing DNA damage induced by endogenous processes and xenobiotics. Isogenic chicken DT40 cell lines deficient in different DNA repair pathways can be used to identify genotoxic compounds and aid in characterizing the nature of the DNA damage induced. Two DNA repair-deficient cell lines with disrupted genes, Rad54/Ku70 or Rev3, were used to screen the Tox21 10K compound library. Possible genotoxicity was based on the presence of a significant increase in cytotoxicity in one or more of the DNA repair-deficient cell lines compared to that observed in the parental DNA repair-proficient cell line. […]
300 DT40 mutant cells in 5 uL/well were dispensed into white, solid-bottom 1536-well plates using a Multidrop Combi (ThermoFisher Scientific, Waltham, MA) dispenser. […] After 5 uL per well of CellTiter-Glo reagent was added into each well of the assay plates, the plates were incubated for 30 min at room temperature and the luminescence intensity of the plates was measured using a ViewLux (PerkinElmer, Shelton, CT) plate reader.

[3] = qHTS assay for identifying genotoxic compounds that show differential cytotoxicity against isogenic chicken DT40 cell lines with known DNA damage response pathways - Rad54/Ku70 mutant cell line (AID 743015); details: DT40 Rad54/Ku70 mutant viability, CellTiter-Glo, 40 h; also: potency is read from the fitted curve at half-maximal effect; nearly all actives have a fitted effect of over 60% in size

Compound	activity change, negative = inhibition [1]	Potency [2]	Potency [3]
CCC(=O)N(c1ccccc1)C1CCN(CCc2ccccc2)CC1	inconclusive: 22.1%	inconclusive: 13.3 µM	
O=[N+]([O-])OCC(CO[N+](=O)[O-])(CO[N+](=O)[O-])CO[N+](=O)[O-]			inconclusive: 13.7 µM
